Laboratory results reported in PubChem BioAssay AID445 (National Center for Advancing Translational Sciences (NCATS), 2006).
Some of the results follow. The main result of the screen is listed elsewhere. These columns were measured beside it and carry no call. Most of these compounds were active or inconclusive in the main read-out, so they are no random draw. The note in brackets gives the kind of curve behind each potency; many fits are weak.

Test: IkB Signaling
Conditions: ABC-DLBCL IkBa-CBG/CBR dual luciferase ratio (green luciferase fused to IkBa over red control in OCI-Ly3 lymphoma cells), 4 h
How it was run: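 In this assay, an IκBα–CBG68 fusion accumulates when IKK-driven degradation is blocked; native CBR normalizes for cell number. OCI-Ly3 cells were treated 4 h with compound and doxycycline, then green and red light read after Chroma-Glo addition.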

[1] = measured here: control luc red channel unless noted

O=C(CSc1nc(-c2cccs2)cc(C(F)(F)F)n1)Nc1ccccc1Cl
AC50 [1]: 39.8 µM [falling, single point]

O=C(Nc1ccc2nc(SCC(=O)N3CCc4ccccc43)sc2c1)c1ccc(Cl)cc1
AC50 [1]: 0.0794 µM [falling, full curve, poor fit]

Cc1cccc(C(=O)Nc2sc3c(c2C(=O)Nc2ccccc2)CCC3)c1
AC50 [1]: 25.1 µM [falling, partial curve]

COc1ccc(C)cc1NC(=O)Cc1ccc(NC(=O)N2CCCCc3ccccc32)cc1
AC50 [1]: 2.51 µM [falling, partial curve]

CCOC(=O)C1=C(CN(C)Cc2ccccc2)NC(=O)NC1c1ccc(OC(C)C)cc1 (centres undefined)
AC50 [1]: 25.1 µM [falling, single point]

COc1ccc(-c2noc(CSc3nnc(C)n3-c3ccc(C)cc3)n2)cc1
AC50 [1]: 20 µM [falling, single point]

COc1ccc(N2CC(C(=O)Nc3ccccc3-c3nc(-c4ccc(C)cc4)no3)CC2=O)cc1 (centres undefined)
AC50 [1]: 10 µM [falling, partial curve]

Cn1c(=O)c2c(nc(NCc3ccccc3)n2Cc2ccc(Cl)c(Cl)c2)n(C)c1=O
AC50 [1]: 12.6 µM [falling, partial curve]

COc1cccc(NC(=O)c2oc3ccc(S(=O)(=O)N4CCC5(CC4)OCCO5)cc3c2C)c1
AC50 [1]: 25.1 µM [falling, partial curve]

CN(C)c1ccc(CNS(=O)(=O)c2csc(C(N)=O)c2)cc1
AC50 [1]: 31.6 µM [falling, single point]

O=C(NCC(c1ccco1)S(=O)(=O)c1cccs1)c1ccc(C(F)(F)F)cc1 (centres undefined)
AC50 [1]: 0.0501 µM [falling, full curve, poor fit]

CC(=O)OC(/C(O)=C(\C#N)c1nc2ccccc2[nH]1)c1ccccc1 (centres undefined)
AC50 [1]: 7.94 µM [falling, partial curve]

COc1cccc(NC(=O)Nc2cc(-c3cn4cccnc4n3)ccc2OC)c1
AC50 [1]: 31.6 µM [falling, single point]

Cc1ccccc1NC(=O)CSc1nc2ccc(NC(=O)c3ccco3)cc2s1
AC50 [1]: 39.8 µM [falling, single point]

COc1ccc(C)cc1NC(=O)c1cc(S(=O)(=O)NCCC2=CCCCC2)ccc1F
AC50 [1]: 15.8 µM [falling, partial curve]

O=C(CSCc1ccc(F)cc1)N1CCc2c([nH]c3ccccc23)C1c1ccccc1 (centres undefined)
AC50 [1]: 39.8 µM [falling, partial curve, poor fit]

CCCOc1ccc(Cn2c(=O)sc3ccccc32)cc1
AC50 [1]: 31.6 µM [falling, single point]

COc1ccccc1NC(=O)c1c(NC(=O)c2cccs2)sc2c1CCC(C(C)(C)C)C2 (centres undefined)
AC50 [1]: 7.94 µM [falling, partial curve]

CCn1c(SCC(=O)OC)nc2sc3c(c2c1=O)CCC3
AC50 [1]: 1 µM [rising, partial curve]

CCc1ccc(OC(=O)c2sc3ncn(Cc4cccc(F)c4)c(=O)c3c2C)cc1
AC50 [1]: 0.794 µM [rising, full curve]

O=C(Nc1ccccc1)Nc1ccc(S(=O)(=O)N2CCCCC2)cc1
AC50 [1]: 39.8 µM [falling, single point]

Cc1ccc(CCNC(=O)C2CCCN(S(=O)(=O)c3ccc4c(c3)oc(=O)n4C)C2)cc1 (centres undefined)
AC50 [1]: 2 µM [falling, partial curve]

CCc1ccc(C(=O)c2cn(Cc3ccccc3)c3cc(OC)c(OC)cc3c2=O)cc1
AC50 [1]: 25.1 µM [falling, single point]

CCCCOC(=O)c1ccc(Nc2nc3ccc(C)cc3n3cnnc23)cc1
AC50 [1]: 1 µM [falling, full curve]

Cc1ccc(CSCCC(=O)N2CCN(c3cc(C)ccc3C)CC2)cc1
AC50 [1]: 31.6 µM [falling, partial curve]

CCCN(CCC)C(=O)C1CCCN(c2ncnc3onc(-c4ccc(F)cc4)c23)C1 (centres undefined)
AC50 [1]: 15.8 µM [falling, partial curve]

COc1ccc(-c2noc(CN(C(=O)Cc3ccc(C)cc3)C(C)C)n2)cc1
AC50 [1]: 25.1 µM [falling, partial curve]

COCCCNC(=O)c1sc2nc(C)c(C(=O)Nc3ccc(C)cc3C)c(-c3ccc(Br)cc3)c2c1N
AC50 [1]: 10 µM [falling, partial curve]

CCC(C)NC(=O)CSc1nnc(-c2ccc(C)cc2)c(-c2ccc(C)cc2)n1 (centres undefined)
AC50 [1]: 25.1 µM [falling, partial curve]

Cc1cn2c(=O)cc(COC(=O)c3ccccc3F)nc2s1
AC50 [1]: 3.16 µM [falling, full curve]

COc1cc(C)ccc1OCCSc1nc2ccc(NC(=O)c3cccs3)cc2s1
AC50 [1]: 5.01 µM [falling, full curve]

Cc1ccc(CNC(=O)CN2C(=O)CSc3ccc(S(=O)(=O)N4CCCC4)cc32)cc1
AC50 [1]: 39.8 µM [falling, single point]

CCc1ccc(C(=O)CSc2nc(-c3ccccc3)nc3c2CCCC3)cc1
AC50 [1]: 25.1 µM [falling, single point]

O=C(Nc1ccc2oc(-c3ccccc3)nc2c1)c1ccc2c(c1)OCCO2
AC50 [1]: 12.6 µM [falling, partial curve]

CN(C)c1ccc(CNC(=O)CN2C(=O)CCn3nc(-c4cn(C)c5ccccc45)cc32)cc1
AC50 [1]: 6.31 µM [falling, full curve]

Cc1c(NC(=O)Nc2ccc(Cl)c(C(F)(F)F)c2)c(=O)n(-c2ccccc2)n1C
AC50 [1]: 39.8 µM [falling, single point]

Fc1ccccc1N1CCN(c2ncnc3onc(-c4cccc(Cl)c4)c23)CC1
AC50 [1]: 15.8 µM [falling, partial curve]

CCOC(=O)CSc1nnc(-c2cccc(Br)c2)o1
AC50 [1]: 15.8 µM [falling, partial curve]

CC(=O)Nc1ccc(NC(=O)c2nc(SCc3ccccc3C)ncc2Cl)cc1
AC50 [1]: 2.51 µM [falling, full curve]

Cc1cccn2c(=O)cc(COc3ccc(NC(=O)C(C)Oc4ccccc4)cc3)nc12 (centres undefined)
AC50 [1]: 0.0251 µM [falling, full curve]

Cn1c(=O)c2c(-c3ccccc3Br)n(Cc3ccccc3)cc2n(C)c1=O
AC50 [1]: 25.1 µM [falling, partial curve]

NS(=O)(=O)c1ccc(NC(=O)CN2CCN(c3ccc(F)cc3)CC2)cc1
AC50 [1]: 20 µM [falling, partial curve, poor fit]

COc1ccc(-c2cc3c(=O)n(CC(=O)Nc4cc(C)ccc4C)ccn3n2)cc1
AC50 [1]: 3.16 µM [rising, full curve]

Cc1ccc(Cl)cc1-n1ncc2c(NCCC3=CCCCC3)ncnc21
AC50 [1]: 39.8 µM [falling, single point]

Cc1ccc(CNC(=O)c2cccc(NC(=O)N3CCSc4ncccc43)c2)cc1
AC50 [1]: 15.8 µM [falling, partial curve]

Cc1cc(C)cc(NC(=O)CCCc2nnc3n(CC(C)C)c(=O)c4sccc4n23)c1
AC50 [1]: 15.8 µM [falling, partial curve]

Cc1ccc(NC(=O)c2ccc3c(c2)NC(=O)c2ccccc2S3)cc1
AC50 [1]: 15.8 µM [falling, partial curve]

CCC1S/C(=C(\C#N)C(=O)NCc2ccco2)N(c2ccc(Br)cc2)C1=O (centres undefined)
AC50 [1]: 12.6 µM [falling, partial curve]

CC(C)(C)c1nc(SCC(=O)NCc2ccco2)c2ccccc2n1
AC50 [1]: 39.8 µM [falling, single point]

CCOc1cc(C2CC(=O)Nc3c2c(=O)nc(SCc2cccc(Cl)c2)n3C)ccc1O (centres undefined)
AC50 [1]: 15.8 µM [falling, partial curve]

O=C(Nc1cccc(Cl)c1)c1cc(S(=O)(=O)N2CCCc3ccccc32)ccc1F
AC50 [1]: 12.6 µM [falling, partial curve]

Cc1ccccc1CNC(=O)c1cc2cccc3c2n1CC(C)S3 (centres undefined)
AC50 [1]: 25.1 µM [falling, partial curve]

O=c1oc2ccccc2cc1NCc1ccccc1O
AC50 [1]: 15.8 µM [falling, partial curve]

COc1ccc(Cl)cc1NC(=O)Cn1nnc(C(=O)NCc2cccs2)c1N
AC50 [1]: 3.16 µM [rising, full curve]

COc1ccccc1NC(=O)COC(=O)CC(C)(C)CC1=NS(=O)(=O)c2ccccc2N1
AC50 [1]: 20 µM [falling, partial curve]

COc1cccc(-c2cc(C(=O)N3CCN(c4ncccn4)CC3)c3ccccc3n2)c1
AC50 [1]: 3.98 µM [falling, full curve]

COc1ccc(N2CCN(C(=O)c3c4c(nc5ccccc35)C(=O)N(C3CCCCC3)C4)CC2)cc1
AC50 (measured here: IkB-luc green channel): 0.0501 µM [rising, full curve, poor fit] | AC50 (measured here: control luc red channel): 12.6 µM [falling, partial curve]

O=C(Nc1ccc2nc(SCC(=O)N3CCCC3)sc2c1)c1cccc(F)c1
AC50 [1]: 12.6 µM [falling, partial curve]

Cc1ccc(C2c3c(-c4ccccc4O)n[nH]c3C(=O)N2Cc2ccncc2)cc1 (centres undefined)
AC50 [1]: 15.8 µM [falling, partial curve]

COc1ccc2cc(C(c3nnnn3C3CCCC3)N3CCc4ccccc4C3)c(=O)[nH]c2c1 (centres undefined)
AC50 [1]: 39.8 µM [falling, single point]

COC(=O)c1ccc(NC(=O)CN(C)S(=O)(=O)c2ccc(OC)c(C)c2)cc1
AC50 [1]: 10 µM [falling, partial curve]

O=C(CN(c1cccc(C(F)(F)F)c1)S(=O)(=O)c1ccccc1)Nc1cccc(Cl)c1
AC50 [1]: 20 µM [falling, partial curve, poor fit]

Cc1ccc([N+](=O)[O-])c(Oc2ncnc3c2oc2ccccc23)c1
AC50 [1]: 0.00631 µM [rising, full curve, poor fit]
